# Percent effect of library compounds

Data taken from ChEMBL document CHEMBL3988442, “University of Dundee, Small-Polar-MMV Screening Library” (2021).

Mtb glucose medium: 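Phenotypic screen: M. tuberculosis growth, glucose 7H9 medium, 3 days; the read-out is not stated. Tested at 50 µM. Higher reads as more growth inhibition (inferred: compounds with an IC50 in retests scored well above the rest). About 69,000 compounds were tested under these conditions; 1.1% (about 760) showed 50% or more at least once.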
Mtb cholesterol medium: 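Whole-cell growth test on Mycobacterium tuberculosis, read after 4 days in a medium based on cholesterol and the lipid DPPC; the read-out is not stated. Concentration: 50 µM. Direction is inferred from retests: higher values go with more growth inhibition. About 69,000 compounds were tested under these conditions; 0.54% (about 370) showed 50% or more at least once.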

Results are given as percent effect.
How 0% and 100% were set is not recorded. Most values in the screen are low, and negative values occur.
This is an unselected part of the compounds tested.
Two or more numbers in one place are separate tests of the same structure; such repeats can differ widely.

| # | Compound | Mtb glucose medium | Mtb cholesterol medium |
|---|---|---|---|
| 1 | `CCOCCC(=O)N1CC(=O)Nc2cc(Br)ccc21` | 13.04 | -20.69 |
| 2 | `COc1ccccc1CNC(=O)N1CCN(Cc2cc(C)on2)CC1` | 15.29 | -10.5 |
| 3 | `Cc1ccsc1CN1CCc2nc3ccsc3c(=O)n2CC1.Cl` | 23.64 | -10.82 |
| 4 | `CNC(=O)[C@@H]1CN(C(=O)COC)C[C@H]1c1ccnc(N2CCCC2)n1` | -8.84 | 0.7866 & -1.042 |
| 5 | `Cc1cccc(NC(=O)CN(C)C(=O)c2scnc2C)n1` | -4.863 | -2.801 |
| 6 | `[H][C@@]12C[C@H](C)O[C@@]1([H])CCN(C(=O)COCC)C2` | -2.022 | -4.633 & -6.576 |
| 7 | `CCc1n[nH]c(C(=O)N2CCN(c3ccc4ccccc4c3)CC2)c1C` | -24.91 | -21.87 |
| 8 | `CCc1nc(C2CCCN2Cc2cc(=O)n(C)c(=O)n2C)no1` (centres unmarked) | -9.478 | -0.6904 |
| 9 | `CC(C)SCC(=O)N1CCCn2nc(C(=O)Nc3ccccc3)cc2C1` | -29.22 & -2.812 | -14.8 |
| 10 | `CCn1nc(C)c2ncnc(N(C)C)c21` | -19.23 | -23.8 |
| 11 | `CN1CCC(c2[nH]ncc2S(C)(=O)=O)CC1` | -2.221 | 12.5 |
| 12 | `c1ccc(Cn2cncn2)c(CNCC2CNc3ccnn3C2)c1` (centres unmarked) | -18.02 | -7.938 |
| 13 | `CCc1ccc(C2CC(=O)Nc3c2c(=O)[nH]n3C(C)C)cc1` (centres unmarked) | -12.67 | -21.59 |
| 14 | `[H][C@@]12CN(c3nc(C)cc(C)n3)C[C@]1([H])N(Cc1ccccc1OC)C(=O)O2` | 7.009 | -4.037 & 12.86 |
| 15 | `CN(C)c1ccc(-c2cccc(-c3ccn(CCCO)n3)c2)nn1` | 45.19 | 22.8 |
| 16 | `Cn1cc(CC(=O)N2CCOC(c3nc(C(C)(C)C)n[nH]3)C2)cn1` (centres unmarked) | 16.53 & -4.356 | 8.114 |
| 17 | `[H][C@]12CC[C@](O)(CC1)C(CN1CCOCC1)N2S(=O)(=O)c1ccccc1` (some centres unmarked) | -19.89 | -16.73 |
| 18 | `CNC(=O)CN1CCOCC12CCN(CCc1ccccc1)CC2.O=C(O)C(F)(F)F.O=C(O)C(F)(F)F` | -11.35 | 2.027 |
| 19 | `CCc1ccc(CN(C(=O)CCn2cc(S(N)(=O)=O)cn2)C2CC2)cc1` | -12.33 | 4.29 |
| 20 | `CC1CCN(CCCNC(=O)C2CCCCC2)CC1` | -26.84 & -10.38 | -18.08 |
| 21 | `C1CC(N2Cc3nnn(CC4CC4)c3C(COCC3CC3)C2)C1.O=C(O)C(F)(F)F` (centres unmarked) | -3.115 | 4.767 |
| 22 | `Cc1nc2c(c(N3CCCC(OCc4ccccn4)C3)n1)CCNCC2` (centres unmarked) | 2.171 & -10.98 | 6.427 |
| 23 | `Cc1cc2[nH]c(CN3CCOC(C(F)(F)F)C3)cc(=O)n2n1` (centres unmarked) | -8.988 | -35.26 |
| 24 | `Cc1cnc2c(c1NCc1ccc(F)cc1)c(=O)n(C)c(=O)n2C` | -16.31 | -24.88 |
| 25 | `O=C(CCCc1cn[nH]c1)N1C[C@@H](CN2CCOCC2)[C@@H](CO)C1` | -22.73 & -12.54 | -3.123 |
| 26 | `Cc1nn(C)cc1C(C)Nc1ncc(C(N)=O)cc1Cl` (centres unmarked) | -9.508 | -12.09 |
| 27 | `CC(=O)N1CCN(C(=O)c2cnc(OC(C)C)c(Cl)c2)CC1` | -11.57 | 0.5362 |
| 28 | `COc1cccc(CC(C)NC(=O)NCCNC(C)=O)c1` (centres unmarked) | -9.893 | -7.944 |
| 29 | `CCOCC1CN(Cc2ccco2)Cc2nccn2C1.O=C(O)C(F)(F)F` (centres unmarked) | 7.862 | 5.833 |
| 30 | `CC(=O)NCC(=O)N1CCc2[nH]c(-c3ccccc3)nc2C1` | -3.458 | -2.51 |
| 31 | `CC(C)N1CCCC1c1csc(N)n1` (centres unmarked) | -5.102 | 7.014 & -9.385 |
| 32 | `Nc1nc2nc(C3CCCN(C(=O)c4cscn4)C3)ccc2s1` (centres unmarked) | -40.68 | -9.066 |
| 33 | `OCc1ccc(CN(CCCn2ccnc2)Cc2cccnc2)o1` | 20.79 | 8.904 |
| 34 | `CC1CN(C(=O)Nc2cc(C(F)(F)F)c[nH]c2=O)CCO1` (centres unmarked) | 1.486 | -3.46 & -5.189 |
| 35 | `O=C(CCC1CCCCC1)NCc1nnc2ccccn12` | -24.9 | -14.66 |
| 36 | `Cc1ncc(CC(=O)N2CCCC(COc3ccc(F)cc3)C2)c(=O)[nH]1` (centres unmarked) | 5.245 & 13.73 | -17.15 |
| 37 | `CCNc1ncc(CN2C[C@@H](CN3CCC(CO)CC3)[C@@H](CO)C2)cn1` | -39.2 | -23.08 |
| 38 | `CN(C)c1cc(CNC(=O)c2c(F)cccc2F)ccn1` | 11.52 | 3.966 |
| 39 | `Cc1nc(C(=O)N2CCC(c3cc(CCO)n(C)n3)C2)co1` (centres unmarked) | 8.176 | 0.2719 |
| 40 | `CN(CCn1cccn1)C1CCCN(Cc2noc(C3CC3)n2)C1` (centres unmarked) | -37.23 | 13.7 |
| 41 | `NC(=O)C1CCN(C(=O)c2ccccc2OCc2ccncc2)CC1` | -21.13 | -35.08 |
| 42 | `CCn1nc(C)c2nc(C(C)C)nc(NCC(=O)N3CCOCC3)c21` | -6.664 | -17.96 |
| 43 | `[H][C@]12CCCCN1CCC[C@@]2(O)CN(C)Cc1nc(CC(C)C)no1` | -0.6994 & 36.44 | 21.74 |
| 44 | `O=C(c1cnco1)N1CCCC(Cc2cccc3ncccc23)C1` (centres unmarked) | 3.806 | 14.86 |
| 45 | `CCc1c(C(=O)NCC2CCS(=O)(=O)C2)cnn1-c1ccccc1` (centres unmarked) | 9.335 | 1.122 |
| 46 | `CC(C)Cc1noc(CN(C)c2ncccn2)n1` | 0.7081 & -8.995 | -15.78 |
| 47 | `O=C(c1nc2sccn2c1-c1ncc[nH]1)N1CCCCC1` | -40.98 | 1.334 |
| 48 | `COc1ccc(OCc2sc(C3(O)CCCNCC3)nc2C)cc1.Cl` (centres unmarked) | 22.96 | 5.649 |
| 49 | `Cc1oc(C(=O)O)cc1S(=O)(=O)Nc1cccc(-c2nccs2)c1` | -9.773 | -0.8264 |
| 50 | `O=C(CS(=O)(=O)Cc1csc(-c2ccc(F)cc2)n1)NCC1CC1` | -18.07 | -27.57 |
| 51 | `CN1CCN(S(C)(=O)=O)c2ccc(F)cc21` | 0.3604 | 14.57 |
| 52 | `[H][C@@]12CC[C@H](Oc3cccc(F)c3)[C@]1([H])CN(C(=O)COCCOC)C2` | -12.13 | -14.11 |
| 53 | `Fc1ccccc1Cc1noc(CN2CCC(C3CCCCC3)C2)n1` (centres unmarked) | 10 | -7.961 |
| 54 | `C=C(C)CNc1nc(CS(=O)(=O)c2ccccc2)cs1` | 0.154 & -7.414 | -9.06 |
| 55 | `CS(=O)(=O)NCCN(CCCO)C1CCc2ccccc21` (centres unmarked) | -11.4 | -9.655 |
| 56 | `Cc1nc(Nc2nnc(C)s2)cc(C2CCCN2S(C)(=O)=O)n1` (centres unmarked) | -2.164 | -5.673 |
| 57 | `Cc1ccc(NC2CCN(C(=O)CCOCC(F)(F)F)CC2)nn1` | 6.619 | 10.99 |
| 58 | `CCN(CC)CCC(=O)N1CCc2c(nc(N(C)C)nc2N(C)C)C1` | -6.38 | 0.5447 |
| 59 | `COc1ccc(S(=O)(=O)NCCn2cnc(C)cc2=O)cc1C` | 5.775 | -13.8 |

5 of the entries, repeated:

Compound,Mtb glucose medium,Mtb cholesterol medium
CC(C)N1CCCC1c1csc(N)n1 (centres unmarked),-5.102,7.014 & -9.385
Cc1oc(C(=O)O)cc1S(=O)(=O)Nc1cccc(-c2nccs2)c1,-9.773,-0.8264
CNC(=O)CN1CCOCC12CCN(CCc1ccccc1)CC2.O=C(O)C(F)(F)F.O=C(O)C(F)(F)F,-11.35,2.027
CN1CCC(c2[nH]ncc2S(C)(=O)=O)CC1,-2.221,12.5
[H][C@]12CC[C@](O)(CC1)C(CN1CCOCC1)N2S(=O)(=O)c1ccccc1 (some centres unmarked),-19.89,-16.73